Test results published in PMC11189558, “Mutations found in cancer patients compromise DNA binding of the winged helix protein STK19”.
Positions count from the first letter of the chain named. For some of these results: A weaker result is weaker than the reference pair of the same experiment. Where a protein sequence is shown, tags need not be part of it. For some of these results: Construct, isoform or probe ends are uncertain for at least one entry. For some of these results: At least one verdict rests on a figure or table, not on a statement of the authors.

Experiments:
Assay in all cases: EMSA
[1] = target: T1, STK19 K186N (human) (UniProt P49842); details: n = 2; 20 mM HEPES pH 7.4, 100 mM NaCl, 1 mM MgCl2, 1 mg/ml BSA, 2 mM DTT, 5% glycerol; 30 min on ice; native 5% PAGE in 1X TBE; recombinant protein; residues 31-254; protein details: GST cleaved, GPLGS left at N-terminus
T1 sequence (looked up): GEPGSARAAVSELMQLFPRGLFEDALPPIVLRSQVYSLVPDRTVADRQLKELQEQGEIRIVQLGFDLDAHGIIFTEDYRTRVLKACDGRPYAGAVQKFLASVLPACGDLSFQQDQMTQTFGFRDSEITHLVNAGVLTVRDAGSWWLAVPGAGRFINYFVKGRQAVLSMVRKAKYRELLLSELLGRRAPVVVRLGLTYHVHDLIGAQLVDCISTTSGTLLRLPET

[2] = target: T2, STK19 (31-254) (human) (UniProt P49842); details: 20 mM HEPES pH 7.4, 100 mM NaCl, 1 mM MgCl2, 1 mg/ml BSA, 2 mM DTT, 5% glycerol; 30 min on ice; native 5% PAGE in 1X TBE; recombinant protein; residues 31-254; protein details: GST cleaved, GPLGS left at N-terminus
T2 sequence (looked up): T1 sequence (looked up) with N156K

[3] = target: T3, STK19 R200W (human) (UniProt P49842); details: n = 2; 20 mM HEPES pH 7.4, 100 mM NaCl, 1 mM MgCl2, 1 mg/ml BSA, 2 mM DTT, 5% glycerol; 30 min on ice; native 5% PAGE in 1X TBE; recombinant protein; residues 31-254; protein details: GST cleaved, GPLGS left at N-terminus
T3 sequence (looked up): T1 sequence (looked up) with N156K, R170W

[4] = target: T4, STK19 R215W (human) (UniProt P49842); details: n = 2; 20 mM HEPES pH 7.4, 100 mM NaCl, 1 mM MgCl2, 1 mg/ml BSA, 2 mM DTT, 5% glycerol; 30 min on ice; native 5% PAGE in 1X TBE; recombinant protein; residues 31-254; protein details: GST cleaved, GPLGS left at N-terminus
T4 sequence (looked up): T1 sequence (looked up) with N156K, R185W

“GAGCTGCCGAATTCTACCAGTGCCTTGCTAGGACATCTTTGCCCACCTGCAGGTTCACC (double strand) [59 bp dsDNA]”: binds more weakly [1]; binds [2]; binds more weakly [3]. “GAGCTGCCGAATTCTACCAGTGCCTTGCTAGGACATCTTTGCCCACCTGCAGGTTCACC (double strand) [59 bp dsDNA]”: binds more weakly [4].
